Data as given in PubChem BioAssay AID1508588 (Peter MacCallum Cancer Centre, 2020)

Assay: 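Knock-downs boosting vemurafenib effects on melanoma cell growth or lactate release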 (primary screen)
Cells: human WM266.4 melanoma cells (BRAF V600 mutant)
Reagents: siRNA pool against human genes, 40 nM
Time to read-out: 96 h from transfection to read-out
Challenge: vemurafenib 300 nM (about IC25), added 48 h after transfection, for 48 h; comparison arm got DMSO vehicle only
Detection: 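Cell gain (DAPI nuclei at end minus before drug, mean of two replicates) and medium lactate by absorbance per cell, both as ratio to non-targeting siRNA, also grouped into fold-change classes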
Direction: cell gain with vemurafenib: higher = more cell gain than with non-targeting siRNA; lactate per cell with vemurafenib: higher = more lactate made per cell
Rule for the call: 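a knock-down counts as enhancing when its fold-change classes with vehicle and with vemurafenib, taken together, show a stronger drug effect on cell gain or lactate per cell; exact class pairs not stated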
Calls: active = enhances vemurafenib effect; inactive = no enhancement seen
Shown is one part, drawn at random, of about 18,000 deposited reagents. Of all reagents, 790 (4.4%) got an active call. 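Calls rest on a combination of fold-change classes in drug and vehicle arms, not all shown here.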

no.	target	cell gain with vemurafenib	lactate per cell with vemurafenib	activity call
1	MIR1-1HG (MIR1-1 host gene)	0.72	0.55	inactive
2	CZIB (CXXC motif containing zinc binding protein)	0.63	1.36	inactive
3	ETV3 (ETS variant transcription factor 3)	0.52	1.18	inactive
4	ACP4 (acid phosphatase 4)	0.56	0.79	inactive
5	PADI3 (peptidyl arginine deiminase 3)	0.96	0.87	inactive
6	ALPI (alkaline phosphatase, intestinal)	0.84	0.64	inactive
7	COBLL1 (cordon-bleu WH2 repeat protein like 1)	0.24	0.62	inactive
8	DENND2C (DENN domain containing 2C)	1.03	0.76	inactive
9	DPEP3 (dipeptidase 3)	0.39	0.97	inactive
10	ACTL7B (actin like 7B)	0.37	0.99	inactive
11	CEP57 (centrosomal protein 57)	0.5	0.62	inactive
12	COBL (cordon-bleu WH2 repeat protein)	0.24	1.77	inactive
13	LSMEM1 (leucine rich single-pass membrane protein 1)	0.61	0.38	inactive
14	DDX24 (DEAD-box helicase 24)	0.19	1.88	inactive
15	MAGEB6 (MAGE family member B6)	0.41	1.52	inactive
16	WNT7B (Wnt family member 7B)	0.49	0.6	inactive
17	AMY2B (amylase alpha 2B)	0.74	0.62	inactive

Sorted by “lactate per cell with vemurafenib” (ascending): some entries from above
target	cell gain with vemurafenib	lactate per cell with vemurafenib	activity call
ETV3 (ETS variant transcription factor 3)	0.52	1.18	inactive
CZIB (CXXC motif containing zinc binding protein)	0.63	1.36	inactive

More entries follow.
no.	target	cell gain with vemurafenib	lactate per cell with vemurafenib	activity call
18	GABRA6 (gamma-aminobutyric acid type A receptor subunit alpha6)	0.71	1.07	inactive
19	C1QTNF2 (C1q and TNF related 2)	0.29	0.92	inactive
20	SLIRP-OT1 (SLIRP overlapping transcript 1)	0.47	1.19	inactive
21	IMP3 (IMP U3 small nucleolar ribonucleoprotein 3)	0.38	2.67	inactive
22	ZNF552 (zinc finger protein 552)	0.31	1.27	inactive
23	REXO2 (RNA exonuclease 2)	0.89	0.48	inactive
24	MS4A1 (membrane spanning 4-domains A1)	0.87	0.58	inactive
25	ZNF483 (zinc finger protein 483)	0.65	0.56	inactive
26	RNF39 (ring finger protein 39)	1.02	0.72	inactive
27	THUMPD1 (THUMP domain 1 NAT10 acetyltransferase adaptor)	0.73	1.01	inactive
28	MRGPRE (MAS related GPR family member E)	0.69	0.8	inactive
29	AMD1 (adenosylmethionine decarboxylase 1)	0.22	1.39	inactive
30	KIAA0930	0.74	0.84	inactive
31	PTH (parathyroid hormone)	0.77	0.44	active
32	SLC6A15	0.52	0.88	inactive
33	OPN1MW (opsin 1, medium wave sensitive)	0.85	0.62	inactive
34	ZNF132 (zinc finger protein 132)	0.86	0.71	inactive
